No constants are given. Whether binding was seen depends on the method and setting. Binding seen in cells or lysates may run through a third protein. Some binding calls cover weakened binding; strength is not graded here.
Assays:
[1] = molecular target: human GPR30 (endogenous) (human) (UniProt Q99527); assay: co-immunoprecipitation from SKBR3 fractions with Gαs antibody, GPR30 immunoblot
[2] = molecular target: human GPR30 (endogenous) (human) (UniProt Q99527); assay: co-immunoprecipitation from SKBR3 fractions with Gαs antibody, GPR30 immunoblot; 17β-E2 treatment triggered uncoupling

Amino acid sequences for entries named in this document (tags omitted). A change or cut given only in a name is not applied to a line headed by its entry. Residues count along the entry.
UniProt Q99527: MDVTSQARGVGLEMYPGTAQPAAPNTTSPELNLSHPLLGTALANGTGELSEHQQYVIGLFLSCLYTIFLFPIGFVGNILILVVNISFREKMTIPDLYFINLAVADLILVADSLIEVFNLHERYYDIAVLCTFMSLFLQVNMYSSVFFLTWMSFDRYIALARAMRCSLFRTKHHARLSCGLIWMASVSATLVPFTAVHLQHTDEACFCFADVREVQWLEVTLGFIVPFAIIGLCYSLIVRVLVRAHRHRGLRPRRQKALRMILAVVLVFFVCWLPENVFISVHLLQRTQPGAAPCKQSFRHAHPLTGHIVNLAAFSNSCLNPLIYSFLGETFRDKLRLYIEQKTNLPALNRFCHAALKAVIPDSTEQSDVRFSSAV
UniProt P63092, residues 2-394: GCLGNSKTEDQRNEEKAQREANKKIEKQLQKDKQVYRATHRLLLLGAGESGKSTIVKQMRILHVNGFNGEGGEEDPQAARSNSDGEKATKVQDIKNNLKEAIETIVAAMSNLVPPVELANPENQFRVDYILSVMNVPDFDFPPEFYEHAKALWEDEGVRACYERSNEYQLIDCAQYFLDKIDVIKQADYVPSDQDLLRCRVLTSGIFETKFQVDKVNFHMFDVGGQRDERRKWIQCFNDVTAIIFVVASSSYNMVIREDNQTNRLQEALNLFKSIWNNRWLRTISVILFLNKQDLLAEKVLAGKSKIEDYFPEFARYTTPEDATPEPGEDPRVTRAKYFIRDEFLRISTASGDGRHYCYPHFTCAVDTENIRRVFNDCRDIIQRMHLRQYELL

Gαs subunit protein (from UniProt P63092 2-394)
binding [1]: binds | binding [2]: binds
